These are yes or no findings as the source states them, for the method shown. In cells and extracts the contact can be indirect. Some entries that bind do so weakly or less than the wild type.
Tests used:
FLAG-His-tagged KBTBD11 = FLAG-His-tagged KBTBD11 (UniProt Q8BNW9); test: co-IP; whole-cell lysates of 3T3-L1 cells infected with GFP or FLAG-His-tagged Kbtbd11 adenovirus, immunoprecipitated with anti-FLAG antibody, blotted with anti-FLAG, anti-HSC70, anti-HSP60 and anti-Cullin3
[1] = molecular target: Cullin3 (mouse (endogenous in 3T3-L1)) (UniProt Q9JLV5); test: co-IP; whole-cell lysates of 3T3-L1 cells infected with GFP or FLAG-His-tagged KBTBD11 adenovirus, immunoprecipitated with anti-Cullin3 antibodies

Sequences of proteins named here, by UniProt entry; tags and fusion partners are left off. Residues count along the entry.
UniProt Q8BNW9: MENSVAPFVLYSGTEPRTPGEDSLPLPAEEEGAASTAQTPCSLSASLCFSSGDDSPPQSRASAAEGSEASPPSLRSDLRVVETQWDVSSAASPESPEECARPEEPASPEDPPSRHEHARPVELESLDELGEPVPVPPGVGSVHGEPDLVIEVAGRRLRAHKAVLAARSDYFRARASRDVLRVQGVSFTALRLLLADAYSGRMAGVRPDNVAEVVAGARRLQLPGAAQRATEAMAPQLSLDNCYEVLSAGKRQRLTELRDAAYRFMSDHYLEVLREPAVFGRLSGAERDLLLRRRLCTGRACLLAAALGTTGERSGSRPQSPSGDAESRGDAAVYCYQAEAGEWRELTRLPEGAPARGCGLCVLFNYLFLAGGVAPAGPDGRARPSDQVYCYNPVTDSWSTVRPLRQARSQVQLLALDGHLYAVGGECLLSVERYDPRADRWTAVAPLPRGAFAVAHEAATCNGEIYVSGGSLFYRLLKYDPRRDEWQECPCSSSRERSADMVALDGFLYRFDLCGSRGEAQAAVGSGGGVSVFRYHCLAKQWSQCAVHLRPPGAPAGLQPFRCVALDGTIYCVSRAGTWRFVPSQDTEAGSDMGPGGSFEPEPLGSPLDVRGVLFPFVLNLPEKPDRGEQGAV
UniProt Q9JLV5: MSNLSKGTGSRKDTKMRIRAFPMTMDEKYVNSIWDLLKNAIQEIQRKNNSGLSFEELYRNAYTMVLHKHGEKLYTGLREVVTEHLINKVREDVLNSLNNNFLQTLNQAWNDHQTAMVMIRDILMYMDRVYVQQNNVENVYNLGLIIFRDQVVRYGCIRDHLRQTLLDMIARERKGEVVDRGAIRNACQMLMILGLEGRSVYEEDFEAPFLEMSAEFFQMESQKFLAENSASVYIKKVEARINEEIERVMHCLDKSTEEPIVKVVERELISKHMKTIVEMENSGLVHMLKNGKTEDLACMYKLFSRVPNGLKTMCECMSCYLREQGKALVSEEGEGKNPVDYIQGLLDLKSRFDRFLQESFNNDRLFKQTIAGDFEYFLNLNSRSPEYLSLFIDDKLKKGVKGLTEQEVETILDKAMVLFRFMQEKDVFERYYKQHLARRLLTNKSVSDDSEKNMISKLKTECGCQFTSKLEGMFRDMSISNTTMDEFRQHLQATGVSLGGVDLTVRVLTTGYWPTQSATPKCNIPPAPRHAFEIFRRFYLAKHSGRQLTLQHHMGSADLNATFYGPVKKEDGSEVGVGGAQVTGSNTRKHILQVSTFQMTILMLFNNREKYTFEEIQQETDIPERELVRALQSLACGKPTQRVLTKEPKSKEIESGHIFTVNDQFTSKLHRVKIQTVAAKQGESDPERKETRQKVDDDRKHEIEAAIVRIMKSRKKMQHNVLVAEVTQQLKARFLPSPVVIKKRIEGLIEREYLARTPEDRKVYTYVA
UniProt P63038, residues 27-573: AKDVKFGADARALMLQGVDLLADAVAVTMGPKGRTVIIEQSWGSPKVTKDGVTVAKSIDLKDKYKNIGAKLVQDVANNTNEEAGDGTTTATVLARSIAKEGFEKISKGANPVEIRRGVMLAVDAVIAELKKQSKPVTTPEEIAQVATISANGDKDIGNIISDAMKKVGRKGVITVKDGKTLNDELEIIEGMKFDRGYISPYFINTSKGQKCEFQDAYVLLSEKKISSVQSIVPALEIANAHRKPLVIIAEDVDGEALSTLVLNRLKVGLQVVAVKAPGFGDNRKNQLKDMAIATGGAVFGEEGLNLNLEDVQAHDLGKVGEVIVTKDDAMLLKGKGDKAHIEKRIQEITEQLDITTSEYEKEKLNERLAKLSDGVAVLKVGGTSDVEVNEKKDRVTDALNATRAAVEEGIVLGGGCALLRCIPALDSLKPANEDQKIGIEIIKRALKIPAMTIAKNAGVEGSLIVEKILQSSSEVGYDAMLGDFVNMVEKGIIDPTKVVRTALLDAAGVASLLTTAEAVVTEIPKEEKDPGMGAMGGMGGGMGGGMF

| binding (FLAG-His-tagged KBTBD11) | binding [1] | Substance |
| --- | --- | --- |
| binds |  | Cullin3 (from UniProt Q9JLV5 1-768) |
|  | binds | FLAG-His-tagged KBTBD11 (from UniProt Q8BNW9 1-633) |
| binds | no binding | HSP60 (from UniProt P63038 27-573) |

Source: publication PMC9700792
